Measurements published in PubChem BioAssay AID2685 (National Center for Advancing Translational Sciences (NCATS), 2010).
The list shows a part of the results. Shown are side measurements of this screen, not its main read-out; they come without a call. The list favours compounds with an active or inconclusive main result. Words in brackets tell the shape of the fitted curve; partial curves, single points and poor fits give uncertain potencies.

Experiment: qHTS Assay for Lipid Storage Modulators in Drosophila S3 Cells;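 as to cell number change: cells counted by Cell Tracker Red CMTPX staining in the red channel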
Conditions: BODIPY lipid droplet fluorescence, 18-24 h; for cell number change: measured here: cell count max response, cells fed with added oleic acid
Outline: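 Drosophila S3 cells loaded with oleic acid (400 uM, as added) and compounds at several concentrations; lipid droplets imaged by 488-nm laser-scanning cytometry, 500–530 nm intensity and object ratio to cell channel. Percent activity normalized to 20 uM Triacsin C.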

[1] = measured here: lipid fluorescence (Fed channel) AC50, cells fed with added oleic acid
[2] = measured here: cell number channel AC50, cells fed with added oleic acid

SMILES | cell number change | AC50 [1] | AC50 [2]
CC(=O)Nc1cccc(NS(=O)(=O)Cc2ccc(Cl)cc2)c1 | -13.8% | 0.58 µM [rising, single point] | 
COc1ccc(OC)c(NC(=O)CSc2nnc(CNC(=O)c3ccco3)o2)c1 |  | 0.58 µM [rising, single point] | 
O=C1NCCCC1C(=O)NCCNC(=O)C(F)(F)F (stereo not given) | -25.2% | 4.11 µM [falling, full curve] | 4.11 µM [falling, full curve, poor fit]
CCN(c1ccc2c(c1)OCO2)S(=O)(=O)c1cc(Br)cc2c1N(C(=O)C1CC1)CC2 |  | 0.517 µM [rising, single point] | 
CC1C(c2ccccc2)N(C)C(c2ccccc2)CC1(O)c1ccc(F)cc1 (stereo not given) | -43.6% | 18.4 µM [falling, single point] | 14.6 µM [falling, single point]
CCOC(=O)c1cnc2ccc(C)cc2c1Sc1ccc(F)cc1 | -43.1% |  | 11.6 µM [falling, partial curve, poor fit]
C#CCOC(=O)CCCC(=O)NCCCCCCCC | -23.1% | 3.26 µM [falling, single point] | 0.517 µM [falling, full curve, poor fit]
Cc1[nH]c(=O)[nH]c(=O)c1S(=O)(=O)N1CCC(C(=O)N2CCN(c3cccc(C(F)(F)F)c3)CC2)CC1 | 73.7% | 9.2 µM [rising, partial curve] | 3.26 µM [rising, partial curve, poor fit]
COc1cccc(N(CC(=O)Nc2cccc(N(C)S(C)(=O)=O)c2)S(C)(=O)=O)c1 | -8.09% |  | 
COc1ccc(C2=C(C=Nc3c(C)n(C)n(-c4ccccc4)c3=O)C(c3ccccc3C)c3ccccc3O2)cc1OC (stereo not given) | 34.8% | 4.11 µM [rising, single point] | 1.64 µM [rising, full curve, poor fit]
CNC(=O)c1ccsc1NC(=O)C1CCN(S(=O)(=O)c2cccs2)CC1 | 16.9% |  | 
Cc1ccc(Nc2nc(-c3sc(NC(=O)c4ccco4)nc3C)cs2)cc1 |  | 0.461 µM [rising, partial curve, poor fit] | 0.291 µM [rising, partial curve, poor fit]
O=C(c1ccco1)N1CCN(Cc2nc3ccc([N+](=O)[O-])cc3c(=O)n2-c2ccccc2F)CC1 |  | 6.51 µM [falling, single point] | 1.84 µM [falling, partial curve]
Cc1ccccc1C(=O)O/N=C(\N)c1ccncc1 | 38.5% | 11.6 µM [rising, single point] | 25.9 µM [rising, single point]

A few values from the results shown.
`Cc1[nH]c(=O)[nH]c(=O)c1S(=O)(=O)N1CCC(C(=O)N2CCN(c3cccc(C(F)(F)F)c3)CC2)CC1` – AC50 [1]: 9.2 µM [rising, partial curve]
`Cc1ccccc1C(=O)O/N=C(\N)c1ccncc1` – AC50 [2]: 25.9 µM [rising, single point]
